# Test results taken from PubChem BioAssay AID292 (DTP/NCI, 2004).
# The list is a part of this screen's results and no random one: it is rich in T/C values a quarter to a half above the control, in often repeated tests (any T/C) and in doses without a T/C. Further doses and runs are listed elsewhere. T/C: endpoint of the treated group in % of that of the vehicle group. Some entries give survivors of the animals treated and no T/C: the source files T/C as zero there, which appears to mark a toxic dose or a test without result, not a measured value. Some survivor counts are full or nearly so, which does not show that the dose was tolerated: the source hardly ever lists a survival T/C far under the control, and the zero likely stands for such cases as well. Survivors were counted at the toxicity check, usually on the fifth day, unless a day is given; later deaths do not show. Schedules are NCI's codes, taken here to give the interval after Q, in days (D) or hours (H), and the number of doses after X. Some entries were tested several times; the values are given in rising order. For survival time, this PubChem deposit counts one and a half times the control or more as active, and values a quarter to a half above the control carry no call in these data; other NCI protocols may use other cut-offs. Marks such as (2×) count equal records among those shown. Some T/C values are followed by the survivors on the day toxicity was checked, most often the fifth; without a count, all were alive then.
# Tested on: B6C3F1 mice, ip Sarcoma M5076, median survival T/C
# Assay: NCI In Vivo Anticancer Drug Screen. Data for tumor model Sarcoma M5076 (intraperitoneal) in B6C3F1 mice
# Settings: T/C endpoint: median survival time, higher T/C = longer survival
# Description: The antitumor activity of compounds was measured in mice bearing transplantable tumors. Survival or tumor size were measured and the results are expressed as the measurement made in the treated group (T) divided by the measurement made in the vehicle treated control group (C). The tumor model used in this assay is Sarcoma M5076 (intraperitoneal) in B6C3F1 mice
# [1] = dose: 400.0 mg/kg/injection, schedule: Q04DX004 (ip), vehicle: saline
# [2] = dose: 800.0 mg/kg/injection, schedule: Q04DX004 (ip), vehicle: saline
# [3] = dose: 600.0 mg/kg/injection, schedule: Q04DX004 (ip), vehicle: saline with Tween-80
# [4] = dose: 400.0 mg/kg/injection, schedule: Q04DX004 (ip), vehicle: saline with Tween-80
# [5] = dose: 800.0 mg/kg/injection, schedule: Q04DX004 (ip), vehicle: saline with Tween-80
# [6] = dose: 800.0 mg/kg/injection, schedule: Q04DX004 (ip), vehicle: water
# [7] = dose: 800.0 mg/kg/injection, schedule: Q04DX004 (ip), vehicle: Klucel (hydroxypropylcellulose) (HPC)
# [8] = dose: 100.0 mg/kg/injection, schedule: Q04DX004 (ip), vehicle: water
# [9] = dose: 200.0 mg/kg/injection, schedule: Q04DX004 (ip), vehicle: water
# [10] = dose: 200.0 mg/kg/injection, schedule: Q04DX004 (ip), vehicle: saline with Tween-80
# [11] = dose: 268.0 mg/kg/injection, schedule: Q04DX004 (ip), vehicle: Klucel (hydroxypropylcellulose) (HPC)
# [12] = dose: 400.0 mg/kg/injection, schedule: Q04DX004 (ip), vehicle: Klucel (hydroxypropylcellulose) (HPC)
compound,measurement,setting,value
O=C(Nc1cccnc1)c1ccc([N+](=O)[O-])s1,survivor count,"dose: 50.0 mg/kg/injection, schedule: Q04DX004 (ip), vehicle: saline",10 of 10 on day 14
same,survivor count,"dose: 100.0 mg/kg/injection, schedule: Q04DX004 (ip), vehicle: saline",10 of 10 on day 14
same,survivor count,"dose: 200.0 mg/kg/injection, schedule: Q04DX004 (ip), vehicle: saline",10 of 10 on day 14
same,survivor count,[1],10 of 10 on day 14
same,survivor count,[2],6 of 10 on day 14
S=c1sc(-c2ccc(Cl)cc2)nn1CSc1nc2ccccc2[nH]1,survivor count,[3],9 of 10 on day 14
Cn1c(=O)c2nncnc2n(C)c1=O,survivor count,[4],1 of 10 on day 14
same,survivor count,[5],0 of 10 on day 14
CC(=O)NO,survivor count,"dose: 400.0 mg/kg/injection, schedule: Q04DX004 (ip), vehicle: water",6 of 10 on day 14
same,survivor count,[6],6 of 10 on day 14
same,T/C,"dose: 1600.0 mg/kg/injection, schedule: Q04DX004 (ip), vehicle: water",127 % of control
COC(=O)c1ccc(N=NN(C)COC(C)=O)cc1,T/C,"dose: 120.0 mg/kg/injection, schedule: Q04DX004 (ip), vehicle: Klucel (hydroxypropylcellulose) (HPC)",146 % of control
same,T/C,"dose: 240.0 mg/kg/injection, schedule: Q04DX004 (ip), vehicle: Klucel (hydroxypropylcellulose) (HPC)",148 % of control [8 of 10 alive on day 14]
same,survivor count,"dose: 480.0 mg/kg/injection, schedule: Q04DX004 (ip), vehicle: Klucel (hydroxypropylcellulose) (HPC)",4 of 10 on day 14
same,survivor count,[7],0 of 10 on day 14
CN=C(N)c1ccc(N=C(N)c2ccc(C(N)=Nc3ccc(C(N)=NC)cc3)cc2)cc1,T/C,"dose: 10.8 mg/kg/injection, schedule: Q01DX005 (ip), vehicle: saline",136 % of control
same,T/C,"dose: 30.0 mg/kg/injection, schedule: Q01DX005 (ip), vehicle: saline",148 % of control (2×)
same,survivor count,"dose: 50.0 mg/kg/injection, schedule: Q01DX005 (ip), vehicle: saline",6 of 10 on day 14
same,survivor count,"dose: 60.0 mg/kg/injection, schedule: Q01DX005 (ip), vehicle: saline",1 of 10 on day 14
same,survivor count,"dose: 60.0 mg/kg/injection, schedule: Q04DX004 (ip), vehicle: saline",0 of 10 on day 14
same,survivor count,"dose: 83.3 mg/kg/injection, schedule: Q01DX005 (ip), vehicle: saline",0 of 10 on day 14
same,survivor count,"dose: 120.0 mg/kg/injection, schedule: Q04DX004 (ip), vehicle: saline",0 of 10 on day 14
CC(NNC(=S)N(C)C1CCCCC1)c1cc2ccccc2cn1 (stereo unspecified),survivor count,[1],1 of 10 on day 14
same,survivor count,[2],0 of 10 on day 14
C#CCN(Cc1ccc2nc(N)[nH]c(=O)c2c1)c1ccc(C(=O)NC(CCC(=O)O)C(=O)O)cc1 (stereo unspecified),T/C,[8],143 % of control
same,T/C,[9],130 % of control
same,survivor count,[6],4 of 10 on day 14
CC(O)CCC(=O)c1ccoc1 (stereo unspecified),survivor count,"dose: 20.0 mg/kg/injection, schedule: Q03HX012 (ip), vehicle: saline",0 of 10 on day 14
COc1cc2c(c(OC)c1OC)-c1ccc(OC)c(=O)cc1[C@@H](NC(C)=O)CC2,T/C,"dose: 1.5 mg/kg/injection, schedule: Q04DX004 (ip), vehicle: saline",126 and 128 % of control [9 of 10 alive on day 14]
same,survivor count,"dose: 3.0 mg/kg/injection, schedule: Q04DX004 (ip), vehicle: saline",1 of 10 on day 14
COc1cc([N+](=O)[O-])ccc1C(=O)Nc1c2ccccc2nc2ccccc12,T/C,"dose: 50.0 mg/kg/injection, schedule: Q04DX004 (ip), vehicle: saline with Tween-80",148 % of control [7 of 10 alive on day 14]
same,survivor count,"dose: 100.0 mg/kg/injection, schedule: Q04DX004 (ip), vehicle: saline with Tween-80",0 of 10 on day 14
same,survivor count,[10],0 of 10 on day 14
same,survivor count,[4],0 of 10 on day 14
same,survivor count,[5],0 of 10 on day 14
Cc1cc(C)cc(N(C2=NCCS2)C2=NCCS2)c1,survivor count,[7],10 of 10 on day 14
Cc1cc2cc3cc(C)c(N)cc3nc2cc1N,survivor count,[10],0 of 10 on day 14
same,survivor count,[4],0 of 10 on day 14
S=C1CCCCN1,survivor count,"dose: 12.5 mg/kg/injection, schedule: Q04DX004 (ip), vehicle: distilled water + alcohol",5 of 10 on day 14
same,survivor count,"dose: 25.0 mg/kg/injection, schedule: Q04DX004 (ip), vehicle: distilled water + alcohol",10 of 10 on day 14
same,survivor count,"dose: 200.0 mg/kg/injection, schedule: Q04DX004 (ip), vehicle: distilled water + alcohol",0 of 10 on day 14 and 1 of 10 on day 14
same,survivor count,"dose: 400.0 mg/kg/injection, schedule: Q04DX004 (ip), vehicle: distilled water + alcohol",0 of 10 on day 14
COc1ccc(-n2c(CSc3ccc(Cl)cc3)n[nH]c2=S)cc1,survivor count,[3],10 of 10 on day 14
CCN(CC)CCCC(C)Nc1c2ccc(Cl)cc2nc2ccc(OC)cc12 (stereo unspecified),survivor count,[1],0 of 10 on day 14
Cc1cc2c(=O)cc(-c3ccccc3)oc2c(C(=O)O)c1C,survivor count,"dose: 250.0 mg/kg/injection, schedule: Q04DX004 (ip), vehicle: saline with Tween-80",5 of 10 on day 14
same,survivor count,"dose: 500.0 mg/kg/injection, schedule: Q04DX004 (ip), vehicle: saline with Tween-80",0 of 10 on day 14
N=C1C=CC2C(=Nc3ccccc3[N+]2=O)N1CCO (stereo unspecified),survivor count,[4],0 of 10 on day 14
CC1(O)C=CC(=O)C=C1,survivor count,[8],0 of 10 on day 14 and 1 of 10 on day 14
same,survivor count,[9],0 of 10 on day 14
Nc1ccc2ccc(N)cc2c1,survivor count,[4],6 of 10 on day 14
C/C=C/C(C)C1OC1(C)C(O)C1COC(=O)C(O)C(OC)C(C)C(=O)C(C)C(O)/C(C)=C/C(C)C(=O)CC(O)C(C)C1=O (stereo unspecified),survivor count,"dose: 40.0 micrograms/kg/injection, schedule: Q04DX004 (ip), vehicle: saline",1 of 10 on day 14
Cn1c(-c2ccc(Br)cc2)cc2[nH]c(=S)nc(N)c2c1=O,survivor count,[4],9 of 10 on day 14
same,survivor count,[5],9 of 10 on day 14
CNCCN=c1ccc2c3c1c(O)c1c(O)ccc(=O)c1c3[nH]n2CCNCCO,survivor count,"dose: 6.0 mg/kg/injection, schedule: Q04DX004 (ip), vehicle: water",8 of 10 on day 14
same,survivor count,"dose: 12.0 mg/kg/injection, schedule: Q04DX004 (ip), vehicle: water",1 of 10 on day 14
same,survivor count,"dose: 24.0 mg/kg/injection, schedule: Q04DX004 (ip), vehicle: water",0 of 10 on day 14
same,survivor count,"dose: 25.0 mg/kg/injection, schedule: Q04DX004 (ip), vehicle: water",0 of 10 on day 14
same,survivor count,"dose: 50.0 mg/kg/injection, schedule: Q04DX004 (ip), vehicle: water",0 of 10 on day 14
same,survivor count,[8],0 of 10 on day 14
COc1nc(C(Cl)(Cl)Cl)c(Cl)c(OC)c1Cl,T/C,"dose: 200.0 mg/kg/injection, schedule: Q04DX004 (ip), vehicle: Klucel (hydroxypropylcellulose) (HPC)",127 % of control
same,T/C,[11],128 % of control
same,survivor count,[11],5 of 10 on day 14
same,T/C,[12],149 % of control
same,survivor count,[12],0 of 10 on day 14
same,survivor count,"dose: 600.0 mg/kg/injection, schedule: Q04DX004 (ip), vehicle: Klucel (hydroxypropylcellulose) (HPC)",0 of 10 on day 14 and 3 of 10 on day 14
same,survivor count,[7],1 of 10 on day 14
CC[C@@]1(O)C(=O)OCc2c1cc1n(c2=O)Cc2cc3c(N)cccc3nc2-1,T/C,"dose: 0.5 mg/kg/injection, schedule: Q04DX004 (ip), vehicle: saline with Tween-80",142 and 149 % of control
same,survivor count,"dose: 2.0 mg/kg/injection, schedule: Q04DX004 (ip), vehicle: saline with Tween-80",6 of 10 on day 14
same,survivor count,"dose: 4.0 mg/kg/injection, schedule: Q04DX004 (ip), vehicle: saline with Tween-80",0 of 10 on day 14
same,survivor count,"dose: 8.0 mg/kg/injection, schedule: Q04DX004 (ip), vehicle: saline with Tween-80",0 of 10 on day 14
CCN(CC)c1ccc2[nH]c3c(C(N)=O)cc(=O)c(=O)c=3oc2c1,survivor count,[4],2 of 10 on day 9
